Reference: PubChem BioAssay AID1259308 (NCATS, 2017)
Aim: 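Knock-downs that increase output of a recombinant reporter protein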 (primary screen). Cells: human HEK293 embryonic kidney cells stably expressing firefly luciferase (HEK-CMV-Luc2-Hygro). Reagent: single siRNA against human genes, 0.8 pmol siRNA per well. Duration: 72 h. Measurement: 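Reporter luminescence and viable-cell signal on separate replicate plates, given as percent of non-targeting control and median/MAD z-scores, plus per-cell luciferase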. Scale: total luciferase, z-score and total luciferase, % of control: higher = more reporter protein produced; luciferase per cell, z-score: higher = more reporter output per viable cell; viable cells, % of control: higher = more viable cells. Call rule: 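Active when the median/MAD z-score for overall luciferase is greater than 3; a gene was taken forward for validation with new siRNAs if at least two of its three siRNAs passed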. Meaning of the calls: active = raised luciferase; inactive = no rise.
In all, the deposit lists about 59,000 reagents; below is an unselected part. Over the whole deposit, about 1,510 (2.6%) were called active. 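Calls use total luciferase alone and ignore viability, so some active siRNAs may act by altering cell number.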 Entries without a mark were called inactive. The numbers tell different reagents against one gene apart.

target gene | reagent no. | total luciferase, z-score | total luciferase, % of control | luciferase per cell, z-score | viable cells, % of control
LOC647115 (retired record) | 1 | -0.489 | 72.2 | -0.866 | 101
LOC647115 (retired record) | 2 | -0.34 | 75.1 | 0.268 | 78.2
LOC647115 (retired record) | 3 | 0.848 | 98.8 | 1.82 | 68.4
AP1M2 (adaptor related protein complex 1 subunit mu 2) | 1 | 1.04 | 103 | 0.955 | 89.2
AP1M2 (adaptor related protein complex 1 subunit mu 2) | 2 | 0.304 | 87.9 | 0.809 | 79.4
AP1M2 (adaptor related protein complex 1 subunit mu 2) | 3 | 0.133 | 84.5 | 0.28 | 87.7
LINC02843 (long independently transcribed non-coding RNA 2843) | 1 | -0.186 | 78.2 | 0.0747 | 85.7
LINC02843 (long independently transcribed non-coding RNA 2843) | 2 | 3.95 (active) | 161 | 2.92 | 83.2
LINC02843 (long independently transcribed non-coding RNA 2843) | 3 | 0.671 | 95.2 | 0.567 | 91.7
LIMK1 (LIM domain kinase 1) | 1 | 0.422 | 90.3 | 0.627 | 85.5
LIMK1 (LIM domain kinase 1) | 2 | 0.247 | 86.8 | 0.526 | 84.4
LIMK1 (LIM domain kinase 1) | 3 | -0.431 | 73.3 | -0.317 | 89.1
SERPINB9 (serpin family B member 9) | 1 | 0.928 | 100 | 0.397 | 101
SERPINB9 (serpin family B member 9) | 2 | 1.4 | 110 | 1.15 | 90.7
SERPINB9 (serpin family B member 9) | 3 | -1.24 | 57.2 | -1.34 | 90.9
KCNJ5-AS1 (KCNJ5 antisense RNA 1) | 1 | -0.00777 | 81.7 | 0.339 | 83.5
KCNJ5-AS1 (KCNJ5 antisense RNA 1) | 2 | -0.725 | 67.5 | -0.908 | 95.7
KCNJ5-AS1 (KCNJ5 antisense RNA 1) | 3 | 0.143 | 84.7 | 0.0595 | 93.2
CNTNAP2 (contactin associated protein 2) | 1 | -0.0474 | 80.9 | -0.236 | 96.2
CNTNAP2 (contactin associated protein 2) | 2 | 0.586 | 93.5 | 0.233 | 98.3
CNTNAP2 (contactin associated protein 2) | 3 | -0.618 | 69.6 | 0.734 | 64.1
PGPEP1 (pyroglutamyl-peptidase I) | 1 | 1.04 | 103 | 0.67 | 96.2
PGPEP1 (pyroglutamyl-peptidase I) | 2 | -0.68 | 68.4 | -1.21 | 105
PGPEP1 (pyroglutamyl-peptidase I) | 3 | 0.6 | 93.8 | 0.343 | 95.8
LOC729296 | 1 | 1.18 | 105 | 0.967 | 91.3
LOC729296 | 2 | -0.0416 | 81.1 | -0.224 | 96.1
LOC729296 | 3 | -0.0842 | 80.2 | -0.748 | 109
ANKRD33 (ankyrin repeat domain 33) | 1 | -3.08 | 20.7 | -4.22 | 70.3
ANKRD33 (ankyrin repeat domain 33) | 2 | -1.36 | 54.8 | 0.512 | 53.5
ANKRD33 (ankyrin repeat domain 33) | 3 | -0.364 | 74.6 | -0.541 | 96.2
ISG20L2 (interferon stimulated exonuclease gene 20 like 2) | 1 | -0.729 | 67.4 | 1.33 | 53
ISG20L2 (interferon stimulated exonuclease gene 20 like 2) | 2 | -0.275 | 76.4 | 0.638 | 72.2
ISG20L2 (interferon stimulated exonuclease gene 20 like 2) | 3 | -1.3 | 56 | -1.27 | 87.4
TGM2 (transglutaminase 2) | 1 | 0.658 | 95 | -0.331 | 116
TGM2 (transglutaminase 2) | 2 | -0.424 | 73.5 | -1.13 | 111
TGM2 (transglutaminase 2) | 3 | 3.49 (active) | 151 | 2.33 | 91.6
DNAAF1 (dynein axonemal assembly factor 1) | 1 | -0.0801 | 80.3 | 0.173 | 85.7
DNAAF1 (dynein axonemal assembly factor 1) | 2 | -0.995 | 62.1 | -0.565 | 80.5
DNAAF1 (dynein axonemal assembly factor 1) | 3 | 0.436 | 90.6 | -0.424 | 113
